From patent publication US8765677B2 (priority 2009, dated 2014)
Where a SMILES comes first, the peptide text is derived from it.

Test system: recombinant N-type (Cav2.2) VGCCs α1B-b/β3
Type: cell-based, rat

## CSCC[C@@H]1NC(=O)[C@H]([C@@H](C)O)NC(=O)[C@H](CCCCN)NC(=O)[C@H](CCCNC(=N)N)NC(=O)[C@@H]2CSSC[C@@H]3NC(=O)[C@H](CO)NC(=O)CNC(=O)[C@H](CCCNC(=N)N)NC(=O)[C@H](CSSC[C@H](N)C(=O)N[C@@H](CCCCN)C(=O)NCC(=O)N[C@@H](CCCCN)C(=O)NCC(=O)N[C@@H](C)C(=O)N[C@@H](CO)C(=O)N2)NC(=O)[C@H](CSSC[C@@H](C(N)=O)NC(=O)[C@H](CCCNC(=N)N)NC(=O)CNC(=O)[C@H](CO)NC(=O)[C@H](CCCNC(=N)N)NC3=O)NC(=O)[C@H](CC(=O)O)NC(=O)[C@H](Cc2ccc(O)cc2)NC1=O [CVIB, reference compound] (HELM PEPTIDE1{C.K.G.K.G.A.S.C.R.K.T.M.Y.D.C.C.R.G.S.C.R.S.G.R.C.[am]}$PEPTIDE1,PEPTIDE1,1:R3-16:R3|PEPTIDE1,PEPTIDE1,8:R3-20:R3|PEPTIDE1,PEPTIDE1,15:R3-25:R3$$$V2.0)
  Hill slope: 0.41±0.04
